This is an account of results in patent publication US20200276166A1.

Amino acid sequences for entries named in this document (tags omitted). Residues count along the entry.
UniProt P02769, residues 25-607: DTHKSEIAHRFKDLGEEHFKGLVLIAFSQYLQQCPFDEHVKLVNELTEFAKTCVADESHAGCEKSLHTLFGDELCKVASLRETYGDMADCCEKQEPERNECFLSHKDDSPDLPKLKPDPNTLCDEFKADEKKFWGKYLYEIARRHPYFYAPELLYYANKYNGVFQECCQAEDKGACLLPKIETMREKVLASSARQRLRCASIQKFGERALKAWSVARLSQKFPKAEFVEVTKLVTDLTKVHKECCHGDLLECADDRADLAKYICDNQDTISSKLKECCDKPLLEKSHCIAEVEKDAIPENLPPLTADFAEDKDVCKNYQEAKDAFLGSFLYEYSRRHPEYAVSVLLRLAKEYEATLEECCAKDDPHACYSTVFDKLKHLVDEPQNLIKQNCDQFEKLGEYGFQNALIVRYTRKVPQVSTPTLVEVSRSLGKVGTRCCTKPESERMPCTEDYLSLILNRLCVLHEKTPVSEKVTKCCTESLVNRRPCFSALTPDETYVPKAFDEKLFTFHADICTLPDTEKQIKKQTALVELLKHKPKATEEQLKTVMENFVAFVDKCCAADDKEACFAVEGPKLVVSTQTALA

Results are given in words; binding and its absence hold for the method and conditions named. In cells and extracts the contact can be indirect. Some results given as binding are weak or reduced against the parent protein; the word gives no strength.

For test [1], the target named is T1, TGF-βRII (rat) (UniProt P38438).
T1 sequence (looked up): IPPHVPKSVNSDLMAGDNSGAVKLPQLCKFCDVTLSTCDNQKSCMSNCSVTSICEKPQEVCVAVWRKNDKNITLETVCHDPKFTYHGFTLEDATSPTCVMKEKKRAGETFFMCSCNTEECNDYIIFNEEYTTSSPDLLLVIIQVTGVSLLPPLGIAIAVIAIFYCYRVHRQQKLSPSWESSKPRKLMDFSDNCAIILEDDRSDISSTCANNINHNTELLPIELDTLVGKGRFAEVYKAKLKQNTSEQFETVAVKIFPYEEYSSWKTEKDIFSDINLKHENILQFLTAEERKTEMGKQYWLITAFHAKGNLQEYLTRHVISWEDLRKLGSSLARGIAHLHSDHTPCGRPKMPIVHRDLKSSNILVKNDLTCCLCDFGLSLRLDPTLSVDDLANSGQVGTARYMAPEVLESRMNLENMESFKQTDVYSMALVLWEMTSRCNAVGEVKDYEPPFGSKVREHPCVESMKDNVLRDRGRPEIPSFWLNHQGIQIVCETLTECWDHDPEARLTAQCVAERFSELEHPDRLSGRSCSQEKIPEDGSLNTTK
Put plainly: co-immunoprecipitation from rat cortical lysate with anti-albumin antibody, Western blot for TGF-βRII. A general note: A western blot detects proteins with antibodies after separation by electrophoresis.

In test [2] the target is T1, TGF-βRII (rat). Nature of the test: co-immunoprecipitation (restated).

“bovine serum albumin (from UniProt P02769 25-607)”: the binding entry in the test with TGF-βRII (rat) [1] and with TGF-βRII (rat) [2] was “binds” throughout.
